# Laboratory results as given in paper PMC5737863, “Entirely enzymatic nanofabrication of DNA–protein conjugates”.
# Biological target: T1, mVirD2 (Agrobacterium tumefaciens (from pSDM3149)) (UniProt P06668)
# T1 sequence (looked up): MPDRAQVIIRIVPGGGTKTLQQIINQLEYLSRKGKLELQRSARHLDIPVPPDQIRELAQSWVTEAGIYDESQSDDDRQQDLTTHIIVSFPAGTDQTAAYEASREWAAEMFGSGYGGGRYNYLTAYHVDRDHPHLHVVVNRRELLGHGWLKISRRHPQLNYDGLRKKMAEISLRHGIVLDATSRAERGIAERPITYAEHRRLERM
# Test: EMSA
# Conditions: no retardation when binding site is RNA, Conjugation/EMSA: TKM buffer (50 mM Tris-HCl pH 8, 150 mM KCl, 1 mM MgCl2, 10% glycerol), 37 C, 1 h, 10% native PAGE, HER2 beads: PBS, room temperature, 15 min, recombinant protein, residues 1-204, protein details: N-terminal 6xHis
Sequence,binding result (ds RNA does not help),binding result
GGAUGUAUGAAGUCGAUCCGUCGGCUUCAUAUAUCCUGCCAGGAGCAUACGUGCUCUUGGUA [ds full RNA],no binding,
GGGAACACUACUAAACUUCAUAUAUCCUGCCAGCCAAUCAAAUCU [ss full RNA],,no binding

# A negative result means that nothing was seen under these conditions. At least one verdict rests on a figure or table, not on a statement of the authors. Tags and fusion partners may be left off the protein sequences shown.
